Test results as given in US8383618B2, “C2-fluoro substituted piperazine linked pyrrolo[2,1-C][1,4] benzodiazepine dimers and a process for the preparation thereof” (Council of Scientific & Industrial Research, priority 2008, dated 2013).
At least one compound was matched to its structure with a doubt left.

Tests used:
SR = assay: NCI in vitro anticancer screen (SRB); assay type: cell-based, human; conditions: Leukemia, 48 h exposure
Method: (§1) The above compounds were evaluated for in vitro anticancer activity against sixty human tumor cells derived from nine cancer types (leukemia, non small cell cancer, colon cancer CNS cancer, melanoma, ovarian cancer renal cancer, prostate cancer and breast cancer) as per NCI protocol. For each compound, dose response curves for each cell line were measured at a minimum of five concentrations at 10-fold dilution. A protocol of 48 h continuous drug exposure was used, and a sulforhodamine B (SRB) protein assay was used to estimate cell viability or growth. The concentration causing 50% cell growth inhibition (GI50), total cell growth inhibition (TGI, 0% growth) and 50% cell death (LC-50% growth) compared with the control was calculated.

CCRF-CEM = assay: NCI in vitro anticancer screen (SRB); assay type: cell-based, human; conditions: Leukemia, 48 h exposure
Method: as §1

COc1cc2c(cc1OCCCN1CCN(CCCOc3cc4c(cc3OC)C(=O)N3CC(F)(F)C[C@H]3C=N4)CC1)N=C[C@@H]1CC(F)(F)CN1C2=O [IXd, 1,1′-{[(bispropane-1,N-diyl)piperazine]dioxy}bis[(11aS)-2-2-difluoro-7-methoxy-1,2,3,11a-tetrahydro-5H-pyrrolo[2,1-c][1,4]benzodiazepine-5-one]] showed a GI50 (SR) of 0.882 pM and a GI50 (CCRF-CEM) of 0.979 pM.
